Measurements from PMC10550955.
Results are given in words; binding and its absence hold for the method and conditions named. Some results given as binding are weak or reduced against the parent protein; the word gives no strength.

Biological target: T1, Mb, P68082
T1 chain: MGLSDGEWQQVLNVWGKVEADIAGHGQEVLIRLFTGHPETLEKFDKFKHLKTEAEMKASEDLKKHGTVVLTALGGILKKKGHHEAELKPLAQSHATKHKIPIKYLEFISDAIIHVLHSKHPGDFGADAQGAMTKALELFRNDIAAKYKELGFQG
Assay: SPR; homotypic: protein immobilised on CM5 or CM3 chip (~800-1000 RU), the same protein injected at increasing concentrations; BIAcore T200; 20 mM sodium phosphate buffer, pH 7.4; two-state model, one-state model for α-Syn and Chymo; both purified
Conditions: remark: other sources report otherwise

binding: binds
B1: Mb, P68082 1-154 (protein)
chain: T1 chain
